Measurements taken from paper PMC11265163.
These are yes or no findings as the source states them, for the method shown. Binding seen in cells or lysates may run through a third protein. Some binding calls cover weakened binding; strength is not graded here.

Sequences of proteins named here, by UniProt entry; tags and fusion partners are left off.
UniProt Q15154: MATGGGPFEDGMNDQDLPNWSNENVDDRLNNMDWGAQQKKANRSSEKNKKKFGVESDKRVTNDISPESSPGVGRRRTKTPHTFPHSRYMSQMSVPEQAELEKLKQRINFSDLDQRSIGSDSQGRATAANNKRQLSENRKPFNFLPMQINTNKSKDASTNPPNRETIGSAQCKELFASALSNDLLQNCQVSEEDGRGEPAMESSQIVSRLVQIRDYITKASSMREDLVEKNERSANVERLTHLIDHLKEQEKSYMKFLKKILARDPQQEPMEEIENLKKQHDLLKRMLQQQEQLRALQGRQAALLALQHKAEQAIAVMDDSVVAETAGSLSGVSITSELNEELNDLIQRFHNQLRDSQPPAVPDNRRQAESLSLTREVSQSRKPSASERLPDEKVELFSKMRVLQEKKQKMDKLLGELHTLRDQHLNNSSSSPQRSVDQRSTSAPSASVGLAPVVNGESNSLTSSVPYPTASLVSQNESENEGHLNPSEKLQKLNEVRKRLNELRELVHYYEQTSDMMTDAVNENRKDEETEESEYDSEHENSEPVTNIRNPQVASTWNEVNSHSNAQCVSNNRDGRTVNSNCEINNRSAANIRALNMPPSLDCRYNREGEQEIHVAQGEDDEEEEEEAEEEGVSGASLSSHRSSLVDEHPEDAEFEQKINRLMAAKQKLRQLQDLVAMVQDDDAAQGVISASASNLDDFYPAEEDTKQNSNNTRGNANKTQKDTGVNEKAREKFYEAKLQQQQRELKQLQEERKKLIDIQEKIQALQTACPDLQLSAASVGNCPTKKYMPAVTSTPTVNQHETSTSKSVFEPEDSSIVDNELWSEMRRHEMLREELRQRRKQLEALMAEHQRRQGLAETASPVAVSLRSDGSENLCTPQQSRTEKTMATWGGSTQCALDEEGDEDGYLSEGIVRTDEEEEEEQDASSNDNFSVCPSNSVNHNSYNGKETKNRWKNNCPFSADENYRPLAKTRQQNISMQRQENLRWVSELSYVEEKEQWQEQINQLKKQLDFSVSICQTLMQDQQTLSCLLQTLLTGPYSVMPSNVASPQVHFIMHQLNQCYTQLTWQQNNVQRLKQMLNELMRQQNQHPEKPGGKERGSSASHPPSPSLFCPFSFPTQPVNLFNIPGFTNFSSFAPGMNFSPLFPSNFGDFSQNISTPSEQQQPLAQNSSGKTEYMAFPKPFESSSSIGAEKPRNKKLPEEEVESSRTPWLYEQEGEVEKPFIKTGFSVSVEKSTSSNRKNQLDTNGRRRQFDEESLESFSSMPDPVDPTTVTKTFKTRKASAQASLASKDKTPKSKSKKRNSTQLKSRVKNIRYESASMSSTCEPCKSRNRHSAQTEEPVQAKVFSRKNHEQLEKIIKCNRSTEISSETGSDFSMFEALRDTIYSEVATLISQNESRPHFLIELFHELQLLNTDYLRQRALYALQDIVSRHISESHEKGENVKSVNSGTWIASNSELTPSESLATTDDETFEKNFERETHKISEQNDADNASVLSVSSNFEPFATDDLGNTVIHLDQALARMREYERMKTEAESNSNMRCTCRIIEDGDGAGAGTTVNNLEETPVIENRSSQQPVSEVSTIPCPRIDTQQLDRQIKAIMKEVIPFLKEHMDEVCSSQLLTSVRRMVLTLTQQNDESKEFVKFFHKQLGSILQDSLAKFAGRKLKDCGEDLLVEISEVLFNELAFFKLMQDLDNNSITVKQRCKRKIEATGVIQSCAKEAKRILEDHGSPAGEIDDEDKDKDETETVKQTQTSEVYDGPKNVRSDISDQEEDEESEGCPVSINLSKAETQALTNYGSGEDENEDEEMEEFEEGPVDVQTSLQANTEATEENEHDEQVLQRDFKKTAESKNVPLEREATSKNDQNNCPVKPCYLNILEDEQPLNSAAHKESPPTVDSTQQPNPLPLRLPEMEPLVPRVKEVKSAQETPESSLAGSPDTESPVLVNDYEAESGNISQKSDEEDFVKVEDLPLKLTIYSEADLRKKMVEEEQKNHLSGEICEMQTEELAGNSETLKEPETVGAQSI
UniProt P08670: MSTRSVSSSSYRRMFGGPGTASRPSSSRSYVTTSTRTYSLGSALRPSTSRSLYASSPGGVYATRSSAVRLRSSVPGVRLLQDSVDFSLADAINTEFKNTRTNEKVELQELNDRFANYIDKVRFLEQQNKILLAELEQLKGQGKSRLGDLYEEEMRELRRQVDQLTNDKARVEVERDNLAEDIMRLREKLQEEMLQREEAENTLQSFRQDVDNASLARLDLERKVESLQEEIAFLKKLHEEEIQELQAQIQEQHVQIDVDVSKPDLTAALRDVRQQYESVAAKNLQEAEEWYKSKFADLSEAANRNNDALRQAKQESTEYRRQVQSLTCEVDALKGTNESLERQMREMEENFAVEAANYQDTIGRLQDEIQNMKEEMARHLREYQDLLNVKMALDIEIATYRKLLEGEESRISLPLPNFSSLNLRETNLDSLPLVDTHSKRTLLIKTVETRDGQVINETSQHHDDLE
UniProt Q9UKK3: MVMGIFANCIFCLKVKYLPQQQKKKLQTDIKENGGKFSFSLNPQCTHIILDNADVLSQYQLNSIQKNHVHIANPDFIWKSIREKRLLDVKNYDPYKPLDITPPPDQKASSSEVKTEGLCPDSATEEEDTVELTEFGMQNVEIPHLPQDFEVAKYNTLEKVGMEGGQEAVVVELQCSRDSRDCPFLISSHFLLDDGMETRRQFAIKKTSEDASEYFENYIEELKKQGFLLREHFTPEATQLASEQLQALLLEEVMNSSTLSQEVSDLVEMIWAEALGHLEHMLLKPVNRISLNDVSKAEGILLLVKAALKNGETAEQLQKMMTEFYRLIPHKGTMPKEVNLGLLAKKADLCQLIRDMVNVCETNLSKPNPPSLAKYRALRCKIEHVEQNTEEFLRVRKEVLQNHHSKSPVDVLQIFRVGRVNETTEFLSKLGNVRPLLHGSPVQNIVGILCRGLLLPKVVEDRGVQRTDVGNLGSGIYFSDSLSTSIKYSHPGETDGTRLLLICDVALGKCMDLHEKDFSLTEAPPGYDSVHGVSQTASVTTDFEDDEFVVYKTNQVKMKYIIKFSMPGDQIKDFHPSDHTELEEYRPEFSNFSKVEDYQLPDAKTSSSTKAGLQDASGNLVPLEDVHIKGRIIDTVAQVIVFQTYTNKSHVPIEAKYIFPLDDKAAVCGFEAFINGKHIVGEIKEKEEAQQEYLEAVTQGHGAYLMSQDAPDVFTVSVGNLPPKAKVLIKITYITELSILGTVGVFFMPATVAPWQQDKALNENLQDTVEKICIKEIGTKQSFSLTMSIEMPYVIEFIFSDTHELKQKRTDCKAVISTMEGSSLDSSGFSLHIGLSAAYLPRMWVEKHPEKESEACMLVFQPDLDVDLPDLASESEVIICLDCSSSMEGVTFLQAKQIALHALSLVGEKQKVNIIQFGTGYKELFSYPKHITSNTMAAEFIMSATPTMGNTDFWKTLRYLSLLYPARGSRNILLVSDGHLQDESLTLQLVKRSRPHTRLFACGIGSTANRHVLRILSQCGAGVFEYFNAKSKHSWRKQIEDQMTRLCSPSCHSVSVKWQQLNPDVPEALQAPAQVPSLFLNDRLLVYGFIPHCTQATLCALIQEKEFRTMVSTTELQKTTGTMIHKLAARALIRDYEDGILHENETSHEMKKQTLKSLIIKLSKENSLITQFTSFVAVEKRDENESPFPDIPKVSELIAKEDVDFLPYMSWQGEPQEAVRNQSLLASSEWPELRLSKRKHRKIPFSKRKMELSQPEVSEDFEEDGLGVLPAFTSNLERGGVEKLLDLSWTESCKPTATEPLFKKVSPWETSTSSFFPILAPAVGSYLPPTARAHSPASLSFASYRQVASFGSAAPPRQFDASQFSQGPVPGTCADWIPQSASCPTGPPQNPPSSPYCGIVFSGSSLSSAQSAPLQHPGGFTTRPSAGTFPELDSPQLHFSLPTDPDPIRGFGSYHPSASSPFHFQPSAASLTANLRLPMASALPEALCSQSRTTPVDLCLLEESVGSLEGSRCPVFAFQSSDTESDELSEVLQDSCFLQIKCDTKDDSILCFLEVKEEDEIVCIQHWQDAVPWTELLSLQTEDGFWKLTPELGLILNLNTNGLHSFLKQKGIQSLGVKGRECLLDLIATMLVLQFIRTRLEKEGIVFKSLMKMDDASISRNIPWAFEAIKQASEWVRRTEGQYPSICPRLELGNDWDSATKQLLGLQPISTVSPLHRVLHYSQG
UniProt Q14764: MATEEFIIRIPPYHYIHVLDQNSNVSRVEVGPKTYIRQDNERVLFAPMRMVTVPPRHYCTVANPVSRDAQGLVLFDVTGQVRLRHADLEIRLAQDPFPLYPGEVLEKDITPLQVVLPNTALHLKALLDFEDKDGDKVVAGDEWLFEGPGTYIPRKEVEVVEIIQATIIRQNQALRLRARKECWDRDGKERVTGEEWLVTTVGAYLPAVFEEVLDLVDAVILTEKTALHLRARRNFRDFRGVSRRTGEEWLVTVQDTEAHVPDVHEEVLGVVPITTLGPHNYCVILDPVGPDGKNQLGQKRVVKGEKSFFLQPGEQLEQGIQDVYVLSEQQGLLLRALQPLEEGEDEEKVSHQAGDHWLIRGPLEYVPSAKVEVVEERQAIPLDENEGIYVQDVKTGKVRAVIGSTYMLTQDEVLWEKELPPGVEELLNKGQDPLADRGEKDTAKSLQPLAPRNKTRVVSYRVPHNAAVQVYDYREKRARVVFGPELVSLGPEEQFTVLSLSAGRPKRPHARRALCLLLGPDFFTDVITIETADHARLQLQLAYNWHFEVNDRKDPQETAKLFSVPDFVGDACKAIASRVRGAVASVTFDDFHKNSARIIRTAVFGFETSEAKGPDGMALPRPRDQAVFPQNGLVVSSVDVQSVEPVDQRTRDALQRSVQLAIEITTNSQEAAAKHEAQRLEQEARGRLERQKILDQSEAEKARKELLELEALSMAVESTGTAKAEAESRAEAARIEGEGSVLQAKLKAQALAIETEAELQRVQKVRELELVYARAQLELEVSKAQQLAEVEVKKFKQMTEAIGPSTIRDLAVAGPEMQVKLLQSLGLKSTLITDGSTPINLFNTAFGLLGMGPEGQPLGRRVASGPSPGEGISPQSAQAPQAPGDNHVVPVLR

How the values were obtained:
Experiment in all cases: co-IP; endogenous proteins in whole-cell lysates (iSAEC-K; also A549, A611, A563, A653); lysis in 10 mM Tris-HCl pH 7.5, 150 mM NaCl, 0.5% NP-40, 0.25% sodium deoxycholate, 0.5 mM EDTA with 2 mM MgCl2 and 50 units/mL benzonase; 1 mg protein, 4 ug antibody overnight, Protein A/G Dynabeads …
[1] = target: T1, keratin 18 (KRT18) (human (endogenous in iSAEC-K)) (UniProt P05783)
T1 sequence: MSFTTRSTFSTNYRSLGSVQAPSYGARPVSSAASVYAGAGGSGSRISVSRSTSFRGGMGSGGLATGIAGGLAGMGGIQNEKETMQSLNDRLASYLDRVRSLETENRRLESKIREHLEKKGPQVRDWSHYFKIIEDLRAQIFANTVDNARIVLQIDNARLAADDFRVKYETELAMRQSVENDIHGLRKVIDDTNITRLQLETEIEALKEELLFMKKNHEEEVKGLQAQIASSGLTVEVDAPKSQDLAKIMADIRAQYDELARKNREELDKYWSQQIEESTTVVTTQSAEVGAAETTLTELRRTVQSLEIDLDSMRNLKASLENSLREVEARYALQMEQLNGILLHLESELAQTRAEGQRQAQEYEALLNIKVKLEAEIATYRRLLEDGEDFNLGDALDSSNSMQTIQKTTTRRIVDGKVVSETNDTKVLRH

[2] = target: pericentrin (PCNT) (human (endogenous in iSAEC-K)) (UniProt O95613)
[3] = target: pericentriolar material 1 protein (PCM1) (human (endogenous in iSAEC-K)) (UniProt Q15154)
[4] = target: vimentin (VIM) (human (endogenous in iSAEC-K)) (UniProt P08670)
[5] = target: PARP4 (human (endogenous in iSAEC-K, A549 and patient-derived lung cell lines)) (UniProt Q9UKK3)

binding [1] | binding [2] | binding [3] | binding [4] | binding [5] | Substance
binds | binds | binds | binds | – | PARP4 (from UniProt Q9UKK3 1-1724)
– | – | – | – | binds | major vault protein (MVP) (from UniProt Q14764 1-893)
